Earlier results as cited in patent US6617127B2, “Synthesis and recovery of aspartame involving enzymatic deformylation step” (Holland Sweetener Company, V.O.F., priority 1998, dated 2003).
For at least one compound, name, drawing or mass did not settle the structure.

Settings: cited from earlier work

**Q.** With COC(=O)[C@H](Cc1ccccc1)NC(=O)C[C@H](N)C(=O)O [β-form of APM] as the compound, how does the sweet taste read?
**A.** does not have sweet taste properties
